Percent effect of library compounds

Measurements from “University of Dundee, Small-Polar-MMV Screening Library” (2021), ChEMBL document CHEMBL3988442.

Results are given as percent effect. The record does not define 0% and 100%; most values in the screen are far below 50% and negative numbers occur (in some assays of this library far below -100). Compounds were drawn at random from those tested, without regard to their results. Two or more numbers in one place are separate tests of the same structure; such repeats can differ widely.

Mtb cholesterol medium: 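Whole-cell growth test on Mycobacterium tuberculosis, read after 4 days in a medium based on cholesterol and the lipid DPPC; the read-out is not stated. Compounds at 50 µM. Higher reads as more growth inhibition (inferred: compounds with an IC50 in retests scored well above the rest). Of about 69,000 compounds tested this way, about 370 (0.54%) reached 50% or more in at least one test.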
Mtb glucose medium: 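Growth of Mycobacterium tuberculosis over 3 days (7H9 medium with glucose and tyloxapol); the read-out is not stated. Tested at 50 µM. Direction is inferred from retests: higher values go with more growth inhibition. About 69,000 compounds were tested under these conditions; 1.1% (about 760) showed 50% or more at least once.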

SMILES	Mtb cholesterol medium	Mtb glucose medium
COc1cn(CC(=O)N2CCN(c3ccc(Cl)cc3)CC2)c(C)cc1=O	-17.87%	-6.018%
COCCc1noc(CN2CCCC2Cn2cccn2)n1 (stereo not given)	-28%	-2.737%
Cc1nc(CNC(=O)N(C)Cc2cnn(C)c2)cs1	-20.88%	-44.07%
CCOc1ncccc1C(=O)NCCN(CC)C1CC1	-11.67%	-17.74%
COc1cc(CN(C)C(=O)NCc2nccs2)ccc1SC	-4.628%	10.45%
CCN(CC)CCn1c(=O)oc2ccccc21.Cl	0.625%	18.65% & 3.571%
COCC1CN(C(=O)COc2ccccc2C)Cc2ncn(C)c21.O=C(O)C(F)(F)F (stereo not given)	14.23%	4.327% & 10.67%
COc1ccc2cnn(CC(=O)NCC3CCCO3)c(=O)c2c1OC (stereo not given)	-8.05%	23.9% & 3.026%
Cl.O=C(Nc1cccc(CNCc2csc(Br)c2)c1)C1CC1	-7.523%	25.28%
Cc1noc(C)c1C(=O)N[C@@H]1CC[C@@H](Oc2ccccc2)[C@@H]1O	-10.27% & -1.478%	-6.064%
COCC(=O)N1CCCCC1c1nccc(C)n1 (stereo not given)	-10.1%	6.103%
Cc1cccc(NCC(=O)Nc2cc(F)ccc2F)c1C(N)=O	5.06%	-0.7838%
COCCN1CCC(Cc2cncc(-c3ccc(C(=O)O)cc3)n2)C1 (stereo not given)	16.26%	4.504%
COc1cccc(CC(=O)N2CCCC2c2nc(C)c(C)c(O)n2)c1 (stereo not given)	8.346%	10.6%
O=C(Cc1cccs1)N1CCC2(CC1)COCCN2CC1CC1.O=C(O)C(F)(F)F	0.7732%	-5.999% & 38.47%
O=C(c1ccccn1)N1CCC(Nc2cccnn2)CC1	-28%	-30.4%
CNC(=O)c1ccc(CNC(=O)NCCN(C)C2CCCC2)cc1	-14.91%	-10.36%
Cc1nc(C)c(CN2CCOC(CN(C)c3cccnn3)C2)s1 (stereo not given)	-14.66%	-17.61%
COc1c(F)cc(CN2CCCC3(CC2)CNC(=O)O3)cc1Cl (stereo not given)	-4.912%	0.2064% & 2.304%
OC(CN1CCCc2cc(OC(F)F)ccc21)Cn1cccn1 (stereo not given)	-35.87%	-46.57%
O=C(O)C(F)(F)F.O=C(c1ccc(F)cc1)N1CCC2(CCN(Cc3ccccn3)C2=O)C1 (stereo not given)	-0.3672%	-17.74%
O=c1ccc(-n2ccnc2)nn1CCNS(=O)(=O)c1ccc(F)c(Cl)c1	21.45%	7.472% & 27.12%
Cl.Cl.Clc1cccc(C[C@@H]2NCCC[C@@H]2Nc2cccc(Cl)c2)c1	111.7%	118.1%
Cl.OC1(Cn2ccc3ncccc32)CCN(Cc2ccccn2)CC1	-42.5%	-77.57%
CCN(CC1CCOC1)S(=O)(=O)Cc1ccccc1Cl (stereo not given)	-0.5837%	6.483%
Cc1cc(C(=O)Nc2ccc3c(ccn3CCN3CCOCC3)c2)on1	-9.794%	-18.34%
Cn1nc(C2CN(S(C)(=O)=O)C2)c2nccnc21	-6.843%	-6.503%
COc1cccc(SCCCn2cnc3c(N)ncnc32)c1	-23.55%	-5.181%
CC(C)N1CCC(c2n[nH]cc2S(C)(=O)=O)CC1	-0.5895%	15.33%
Cc1cnn(CC2CN(CC(=O)NCc3ccccn3)CCO2)c1 (stereo not given)	-14.31%	-2.398%
Cc1ccc(CC(=O)N2CCCC2Cn2nc(C)cc2C)cn1 (stereo not given)	-22.03%	-1.697%
Cc1oc(-c2ccco2)nc1CC(=O)N1CCN(CC(C)(C)O)CC1	-14.5%	-10.34%
CCCSCC(=O)N1CCCC(CO)(CCC)C1 (stereo not given)	-12.87%	15.93%
CC(C)N1CCC2(CC1)C(=O)N(CCN(C)C)c1ccccc12.O=C(O)C(F)(F)F.O=C(O)C(F)(F)F	-19.54%	-23.71%
COc1ccc(CN(C)Cc2c(C)noc2C)c(Br)c1OC	0.6595%	8.198%
O=C(O)C(c1cccc2c1OCC2)N1CCC(N2CCSCC2)CC1 (stereo not given)	6.641%	21.38%
c1cc(N2CCC(c3nnc(Cn4ccnc4)n3C3CC3)CC2)ccn1	15.1% & -7.971%	2.258%
Cc1c(C(=O)N2CCC3(CCCNC3=O)C2)sc2nc[nH]c(=O)c12 (stereo not given)	4.975%	-8.892%
COc1cccc(CN2CCC(c3nccn3C(C)C)CC2)c1	2.638%	15.28%
Cc1cc(NCc2ccco2)nc2[nH]nc(N)c12	-11.12%	-0.009424%
CC(C)CC(C#N)NC(=O)COC1CCCCC1 (stereo not given)	2.673%	18.64% & 17.48%
CC(C)Cc1cc(C(=O)NCCc2ccc(S(C)(=O)=O)cc2)[nH]n1	-3.077%	9.194% & 18.02%
COc1ccccc1OCCCN1CCNC1=O	-2.399%	-1.198%
CC(C)(O)C1CCN(C(=O)Nc2nc(-c3ccccc3)ns2)CC1	28.78%	39.83%
COCC(=O)NCC1CCN(Cc2ccsc2)CC1	-9.946%	4.5%
CN1C(=N)NC(=O)/C1=C/c1ccc(-c2ccc(Br)cc2)o1	-6.23%	-30.83%
CN1C(=O)CC(C(=O)O)C12CCN(Cc1ccc(Cl)c(F)c1)CC2 (stereo not given)	-4.133%	2.025% & -6.56%
O=C1CC(c2ccccc2F)c2c(n3ccsc3nc2=O)N1 (stereo not given)	3.722%	6.129%
CN(Cc1csc(-c2cccs2)n1)C(=O)CCn1ccccc1=O	-18.42%	-5.797%
CC(=O)NCc1nc(CCOc2ccc(Cl)cc2)no1	-2.684%	8.935% & 7.433%
NCc1cccc(-c2cccnc2C(=O)NCCN2CCOCC2)c1	4.765%	-9.719%
[H][C@@]12C[C@@H](C(=O)NC(C)C)C[C@@]1([H])N(Cc1ccncc1)CCO2	8.697%	-3.394% & 13.62%
CCC[C@H]1CN(Cc2cc(C)no2)C[C@@H]1NC(=O)C1(COC)CCC1	-2.036%	22.35%
Cl.O=C(NCC1CCC2(CCNCC2)CO1)c1cnccn1 (stereo not given)	-13.04%	-46.2% & -14.95%
Nc1cc(CCCNC(=O)NC2CC2)nn1-c1ccccc1	-22.27%	-5.787% & -11.83%
COc1ccccc1C1(CNC(=O)NCc2noc(C)n2)CC1	-8.744%	-14.29% & 3.925%
CN1CCOC(CNCc2coc(-c3cccc(Cl)c3)n2)C1 (stereo not given)	-1.366%	-2.33% & 10.05%
Cc1ncc(CNC(=O)CCc2c(C)noc2C)c(C2CCCN2C)n1 (stereo not given)	11.56%	20.48%
O=C(c1ccc(C2CCCN2)s1)N1CCN2CCC1CC2 (stereo not given)	9.942% & -10.71%	-4.656%
Cc1ccc(CC(=O)NCC(Cc2ccc(F)cc2)C(N)=O)cn1 (stereo not given)	15.42%	23.31%
CCOC(=O)C1(NCC(=O)Nc2cc(C)ccc2OC)CCCC1	10.68%	21.6%
Cc1cc2[nH]c(=O)c(=O)[nH]c2cc1S(=O)(=O)NC1CCC(C)CC1 (stereo not given)	11.69%	10.79%
CN1CCN(c2ncccn2)CC1C(N)=O (stereo not given)	-68.24%	-59.92%
O=C1N(c2ccc(F)cc2)Cc2nc(=O)n(Cc3cccc(Cl)c3)n21	5.743%	21.24%
CN1CCCN(C(=O)c2ccc3c(c2)nc(N2CCOCC2)n3C)CC1	-18.14%	-18.76% & -4.321%
COCCn1cnc(-c2nc(C(=O)N3CCOCC3)c3ccccn23)c1	-1.288%	-6.73% & -18.4%
O=S(=O)(CCCN1CCCC(Cn2cncn2)C1)c1ccccc1 (stereo not given)	2.765%	15.7%
COCCc1noc(Cn2ccc3ccccc3c2=O)n1	-25.6%	-3.936%
COc1ccc(CC(=O)N2CCCN(c3ccc(C#N)cc3)CC2)cc1	-4.861%	0.9928% & 2.831%
CS(=O)(=O)C1(C(=O)NC2CCc3nccn3C2)CCCC1 (stereo not given)	-14.94% & -1.73%	-16.5%
OC(CNCc1nnc2ccccn12)c1ccc2c(c1)OCCCO2 (stereo not given)	-5.284%	8.538%
Cn1cc(C(=O)N2CCCC2c2ccc3c(c2)OCCO3)ccc1=O (stereo not given)	-24.48%	0.4775%
CC(C)N1CCN(C)CC1c1nnc2ccc(C(=O)N3CCCC3)cn12 (stereo not given)	-17.42%	-6.281%
COCc1noc(CN2C(=O)OC[C@@H]2C(C)C)n1	-14.65%	-0.01388% & -12.66%
Cc1cnc(N2CCC3(CC2)CC(NC(=O)N(C)C)CO3)nc1 (stereo not given)	-9.856%	11.54%
O=C(c1cc(Cn2cnc3ccccc32)on1)N1CCOCC1	4.716%	-10.34% & -2.793%
O=C(C1CCC1)N1CCc2onc(Cn3cccn3)c2C1	-23.3%	-4.388%
COc1c(NS(=O)(=O)c2ccc(C)c(C)c2)c(C)nn1C	11.58%	7.777%
CC(O)CN1CCC(CNCc2c[nH]nc2C(C)(C)C)CC1 (stereo not given)	55.97%	8.335%
C[C@@H](NC(=O)c1cccnc1)c1onc(-c2ccccc2)c1C(=O)O	-6.958%	21.25% & -2.581%

Once more, the final 9:

SMILES	Mtb cholesterol medium	Mtb glucose medium
Cn1cc(C(=O)N2CCCC2c2ccc3c(c2)OCCO3)ccc1=O (stereo not given)	-24.48%	0.4775%
CC(C)N1CCN(C)CC1c1nnc2ccc(C(=O)N3CCCC3)cn12 (stereo not given)	-17.42%	-6.281%
COCc1noc(CN2C(=O)OC[C@@H]2C(C)C)n1	-14.65%	-0.01388% & -12.66%
Cc1cnc(N2CCC3(CC2)CC(NC(=O)N(C)C)CO3)nc1 (stereo not given)	-9.856%	11.54%
O=C(c1cc(Cn2cnc3ccccc32)on1)N1CCOCC1	4.716%	-10.34% & -2.793%
O=C(C1CCC1)N1CCc2onc(Cn3cccn3)c2C1	-23.3%	-4.388%
COc1c(NS(=O)(=O)c2ccc(C)c(C)c2)c(C)nn1C	11.58%	7.777%
CC(O)CN1CCC(CNCc2c[nH]nc2C(C)(C)C)CC1 (stereo not given)	55.97%	8.335%
C[C@@H](NC(=O)c1cccnc1)c1onc(-c2ccccc2)c1C(=O)O	-6.958%	21.25% & -2.581%